Source: PubChem BioAssay AID1259354 (Paczesny and Yang Labs, IUPUI and University of Michigan, 2018)
About 1,800 (2.3%) of roughly 78,000 compounds were called active. Inconclusive means that the source gave no clear call. Such entries were picked first, then a sample of the others. Rule as the data show it: active = inhibition above about 30%; inconclusive = mostly about 10% to 28%; inactive = weaker than that.

The chains behind the UniProt entries cited, without tags or fusion partners. Where a name states a change or a piece, a line headed by the entry shows the natural chain unless it says otherwise.
UniProt Q01638: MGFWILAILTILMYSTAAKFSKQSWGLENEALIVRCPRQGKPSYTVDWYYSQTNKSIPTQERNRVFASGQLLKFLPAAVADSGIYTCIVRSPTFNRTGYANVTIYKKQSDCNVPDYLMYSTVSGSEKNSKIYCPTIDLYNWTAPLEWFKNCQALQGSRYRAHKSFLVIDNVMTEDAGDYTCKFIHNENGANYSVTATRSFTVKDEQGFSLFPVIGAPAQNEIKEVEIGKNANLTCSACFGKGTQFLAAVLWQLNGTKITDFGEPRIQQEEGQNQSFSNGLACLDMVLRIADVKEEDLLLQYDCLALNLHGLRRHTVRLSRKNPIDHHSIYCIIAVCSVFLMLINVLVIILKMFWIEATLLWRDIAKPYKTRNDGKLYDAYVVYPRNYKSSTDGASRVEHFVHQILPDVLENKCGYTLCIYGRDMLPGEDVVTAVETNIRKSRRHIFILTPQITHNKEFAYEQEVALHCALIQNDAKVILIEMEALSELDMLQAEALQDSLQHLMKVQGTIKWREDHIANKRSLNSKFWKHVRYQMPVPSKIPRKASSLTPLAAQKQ

Target: Interleukin-1 receptor-like 1 (Homo sapiens) (UniProt Q01638)
Test: blocks human ST2 binding to IL-33, primary screen, biochemical, AlphaLISA (AID 1259354)
Conditions: AlphaLISA ST2-Fc/biotin-IL-33 interaction, 1 h; at 17 µM, hits give high values

| SMILES | inhibition |
| --- | --- |
| C=CCN(CC=C)S(=O)(=O)c1ccc(C(=O)Nc2nnc(-c3ccccc3OC)o2)cc1 | inconclusive: 13% |
| N#C/C(=C\c1ccc(O)c(O)c1)C(=O)Nc1ccccc1 | inactive |
| CC(C)n1c2ccccc2c2nnc(SCC(=O)Nc3ccc(Cl)cn3)nc21 | inconclusive: 14% |
| Cc1cccc(C(=O)Nc2sc3c(c2C(=O)NCC2CCCO2)CCCC3)c1 (stereo not drawn) | inactive |
| Cc1ccc2nc(CCNC(=O)CN3C(=O)CCc4cc(S(=O)(=O)N5CCCC5)ccc43)[nH]c2c1 | inactive |
| O=C(CCc1nc(-c2ccccc2F)no1)NC1CCCc2ccccc21 (stereo not drawn) | inactive |
| CCN1C=C(c2ccc3ccccc3n2)C(C[N+](=O)[O-])c2ccccc21 (stereo not drawn) | inconclusive: 13% |
| COc1cc(OC)c(OC)cc1CNC(C)C1COc2ccccc2O1 (stereo not drawn) | inactive |
| Cc1oc(-c2cccs2)nc1CN1CCCC(CO)(Cc2ccccc2)C1 (stereo not drawn) | inconclusive: 10% |
| COc1ccccc1NC(=O)Cn1cnc2c(oc3ccccc32)c1=O | inconclusive: 11% |
| Cc1ccc(C2C3C(=O)N(c4cccc(C)c4)C(=O)C3N3CCCN23)cc1 (stereo not drawn) | inconclusive: 13% |
| CCOC(=O)Nc1ccc2c(c1)N(C(=O)CN(CC)CC)c1ccccc1S2 | inconclusive: 11% |
| COc1ccc(N2C(=O)C3C(c4ccc(F)cc4)OC4(C(=O)c5ccccc5C4=O)C3C2=O)cc1 (stereo not drawn) | inactive |
| O=C1Nc2ccc(-c3ccsc3)cc2C(=O)N2C[C@@H](NS(=O)(=O)c3ccc(F)cc3)C[C@@H]12 | inconclusive: 10% |
| CS(=O)(=O)CS(=O)(=O)C1=C(N2CCOCC2)C2CCN1CC2 | inactive |
| Cc1cc(Nc2ccc(O)cc2)n2c(nc3ccccc32)c1C#N | active: 33% |
| c1cc2c(-c3ccc(NC4CCCC4)nn3)cc(NC3CCNCC3)nc2[nH]1 | active: 40% |
| CCCn1cnc2c1CN(S(=O)(=O)c1cccc(C(F)(F)F)c1)[C@H](C(=O)OC)C2 | inconclusive: 10% |
| CCOc1cc(/C=C2/SC(=Nc3ccccc3)NC2=O)ccc1O | inconclusive: 18% |
| COc1ccccc1C1Nc2ccc(C(=O)c3ccccc3)cc2NC2=C1C(=O)CCC2 (stereo not drawn) | inconclusive: 26% |
| COc1ccc(CN(CCC(c2ccc(F)cc2)C2CCOC(C)(C)C2)C(=O)c2ccco2)cc1 (stereo not drawn) | inconclusive: 19% |
| CC(=O)NCc1ccc(S(=O)(=O)NN)cc1 | inconclusive: 14% |
| O=C1C(=Nc2cccc(F)c2)c2ccccc2N1CN1CCN(c2ccc([N+](=O)[O-])cc2)CC1 | inconclusive: 21% |
| O=C(Nc1cnn(-c2ccc(C(=O)N3CCOc4ccccc4C3)cc2)c1)C1CCOCC1 | inconclusive: 13% |

| SMILES | inhibition |
| --- | --- |
| Cc1cccc(-c2noc([C@@H]3Cc4nc[nH]c4CN3C(=O)Nc3ccccc3)n2)c1 | inconclusive: 12% |
| Cc1nc2sc(C(N)=O)c(N)c2c(C)c1C | inactive |
| c1ccc2c(c1)CCN(C1CCN(Cc3cc4n(n3)CCNC4)CC1)C2 | inconclusive: 17% |
| CCc1cn[nH]c1C1CCN(C(=O)c2cc(-c3cnn(C)c3C)n[nH]2)CC1 | inconclusive: 18% |
| COC(=O)C1C(=O)C2=C(CC1C)NC(C)=C(C(=O)OC(C)C)C2c1cccc(OC)c1OC (stereo not drawn) | inactive |
| COc1ccccc1N=c1oc2ccc(Br)cc2cc1C(N)=O | inactive |
| Cc1nc2c(ccc3nc(NC(=O)c4cccc(F)c4)sc32)s1 | inactive |
| COCCCNc1nc2c(c(=O)n(C)c(=O)n2C)n1Cc1c(F)cccc1Cl | inconclusive: 16% |
| O=[N+]([O-])c1ccc(CN2CCCCCC2)o1 | inconclusive: 14% |
| CCc1ccc(CN(Cc2ccco2)C(C)C(C)C)nc1 (stereo not drawn) | inconclusive: 16% |
| Cc1nc2cc(NC(=O)c3ccc(S(=O)(=O)N4CCOCC4)cc3)ccc2s1 | inconclusive: 15% |
| Cc1cccc(CN2CCN(Cc3cn(C)nc3-c3ccccc3)CC2CCO)n1 (stereo not drawn) | inactive |
| Cc1ccc(C2(O)CCN(c3nc(-c4ccccc4)nc4c3CCC4)CC2)nc1 | inactive |
| O=C(COc1ccccc1)Nc1cnn(CC(=O)N2CCC3(C=Cc4ccccc43)CC2)c1 | inactive |
| Cc1cccc(NC(=O)Cc2ccccc2)c1 | inconclusive: 17% |
| Cc1c(N=Cc2cc([N+](=O)[O-])ccc2N2CCCCCC2)c(=O)n(-c2ccccc2)n1C | active: 42% |
| COc1cc(NC(=O)c2ccc(-c3cccc([N+](=O)[O-])c3)o2)ccc1NC(=O)c1ccco1 | inconclusive: 21% |
| Cn1c(=O)nc2n(-c3cccc(Cl)c3)c3ccccc3cc-2c1=O | inconclusive: 14% |
| COc1ccc(C(=O)Nc2cccc3c2CCCC3)cc1[N+](=O)[O-] | inconclusive: 13% |
| Cc1ccc(-c2nnc(-c3nc(NC4CC4)c4ccccc4n3)o2)cc1 | inactive |
| COc1cc(Br)c(/C=C2/C(=O)N=C(N)N2C)cc1OC | inconclusive: 23% |
| CC1CCCN(CCNC2CCN(Cc3ccccn3)CC2)C1 (stereo not drawn) | inconclusive: 13% |
| Cc1ccc(N2C(=O)c3c(C)nc4ccccc4c3C2=O)cc1C | inconclusive: 15% |
| Cc1ccccc1N1CCN(Cc2sccc2C)CC1 | inconclusive: 18% |

Taken from above.
Entry of O=[N+]([O-])c1ccc(CN2CCCCCC2)o1 under inhibition: inconclusive: 14%
Entry of c1ccc2c(c1)CCN(C1CCN(Cc3cc4n(n3)CCNC4)CC1)C2 under inhibition: inconclusive: 17%
Entry of Cc1ccc(-c2nnc(-c3nc(NC4CC4)c4ccccc4n3)o2)cc1 under inhibition: inactive

More records.

| SMILES | inhibition |
| --- | --- |
| O=C1NC(=O)C(c2ccccc2[N+](=O)[O-])=C1Nc1ccc(O)c(Cl)c1 | inactive |
| CCN(CC)c1ncccc1CNCc1cccn1-c1cccnc1 | inconclusive: 11% |
| Cc1ccccc1C(=O)Nc1ncc(S(=O)(=O)c2ccc([N+](=O)[O-])cc2)s1 | inactive |
| COc1ccc(-c2nccn2CCc2ccc(S(N)(=O)=O)cc2)cc1 | inconclusive: 12% |
| COc1ccc(CN2CCN(c3ccccn3)CC2)cc1 | inconclusive: 14% |
| CCOc1cc(C2C(C(=O)c3cccs3)=C(O)C(=O)N2c2nc(C)c(C)s2)ccc1O (stereo not drawn) | inconclusive: 15% |
| Cc1ccc(N2CC(NC(=O)Cc3ccccc3)CC2=O)cc1 (stereo not drawn) | inconclusive: 16% |
| CCOc1ccc(CN2CCC(N3CCC(C(=O)NC(C)C)CC3)CC2)cc1 | inconclusive: 14% |
| COc1ccccc1C1C(C#N)=C(N)Oc2n[nH]c(-c3cc(OC)c(OC)c(OC)c3)c21 (stereo not drawn) | inconclusive: 15% |
| CN(C)c1ccc(C2C(C#N)=C(N)OC3=C2C(=O)CC(c2ccccc2)C3)cc1 (stereo not drawn) | inconclusive: 22% |
| O=C(Nc1nc2ccccc2s1)c1cccnc1 | inconclusive: 10% |
| Cc1ccc(S(=O)(=O)CCC(=O)NCC(=O)O)cc1C | inactive |
| CCN(Cc1noc(CC(C)C)n1)C(=O)c1cnn2cc(C)cnc12 | inactive |
| COc1ccc(N2CN=c3s/c(=C\c4ccc(OC)c(OC)c4)c(=O)n3C2)cc1 | active: 35% |
| O=C(CSc1nc2c(sc3ccccc32)c(=O)n1CCCN1CCOCC1)c1ccccc1 | inconclusive: 14% |
| COc1ccc(Br)cc1CNC(=O)C1CCN(S(=O)(=O)N2CCCCC2)CC1 | inactive |
| O=C(Nc1ccc(Cl)cc1)N[C@H]1CO[C@H]2[C@@H]1OC[C@H]2O | inconclusive: 19% |
| O=C1NC(=O)C(CCCc2ccccc2)(C2CCNCC2)N1 (stereo not drawn) | inconclusive: 10% |
| COc1ccc(C=Nc2ccc3oc(-c4ccncc4)nc3c2)cc1Cl | active: 33% |
| COc1ccc(NC(=O)c2cc3cc(Br)cc(Br)c3oc2=O)cc1 | inactive |
| CCn1ccnc1CN1CCN(Cc2ccc(F)cc2)C(=O)C1 | inconclusive: 12% |
| Cc1cccc(-n2ncc3c(NCCCN(C)C)ncnc32)c1 | inconclusive: 15% |
| Cc1ccsc1C(=O)N1CCn2nc(C(=O)NCc3ccccn3)cc2C1 | inconclusive: 11% |
| CCc1ccc2nc(N3CC(O)C3)cc(C)c2c1 | inconclusive: 11% |

Gathered by group, the entries above with a cyano group

| SMILES | inhibition |
| --- | --- |
| N#C/C(=C\c1ccc(O)c(O)c1)C(=O)Nc1ccccc1 | inactive |
| Cc1cc(Nc2ccc(O)cc2)n2c(nc3ccccc32)c1C#N | active: 33% |
| COc1ccccc1C1C(C#N)=C(N)Oc2n[nH]c(-c3cc(OC)c(OC)c(OC)c3)c21 (stereo not drawn) | inconclusive: 15% |
| CN(C)c1ccc(C2C(C#N)=C(N)OC3=C2C(=O)CC(c2ccccc2)C3)cc1 (stereo not drawn) | inconclusive: 22% |

Further compounds follow.

| SMILES | inhibition |
| --- | --- |
| Cc1ccc(-c2cc(CN3CCCC(N4CCCC4=O)C3)on2)cc1 (stereo not drawn) | inactive |
| Cc1cnc2c(c1)C(=Nc1ccccc1)c1cc([N+](=O)[O-])ccc1-2 | inconclusive: 29% |
| CCCc1nnsc1C(=O)N1CCC(Cc2cccc(C(N)=O)c2)C1 (stereo not drawn) | inconclusive: 22% |
| COc1ccc(S(=O)(=O)N(CC(=O)Nc2ccc3c(c2)OCO3)c2ccccc2)cc1 | inactive |
| O=C(N1CCOCC1)N1CCN(c2ccc([N+](=O)[O-])cc2)CC1 | inconclusive: 12% |
| COc1cc(NC(=O)c2ccncc2)cc(OC)c1 | inconclusive: 12% |
| COC(=O)CSC1=C(C#N)C(c2ccc(OC)c(OC)c2)CC(=O)N1 (stereo not drawn) | inactive |
| Oc1oc(-c2ccccc2F)nc1C=Nc1ccc(Cl)cn1 | active: 32% |
| COCCNC(=O)CSC1=Nc2ccccc2C2=NC(Cc3c[nH]c4ccccc34)C(=O)N12 (stereo not drawn) | inconclusive: 11% |
| O=C(Nc1ccccc1I)c1ccc(Cl)cc1[N+](=O)[O-] | active: 30% |
| Nc1cc(-c2nc3ccccc3o2)ccc1Cl | inactive |
| OC[C@@H]1O[C@H](CNC2CCOCC2)[C@H](N2CCN(c3ncccn3)CC2)[C@@H]1O | inconclusive: 13% |
| COc1ccc(C2=NN3C(C2)c2ccccc2OC32CCCCC2)cc1 (stereo not drawn) | inconclusive: 13% |
| COC(=O)[C@@H]1CN(C(=O)c2cccc(F)c2)CCN1S(C)(=O)=O | inconclusive: 23% |
| O=C1NCC2(CCCN(c3ncnc4sccc34)CC2)O1 (stereo not drawn) | inactive |
| O=C(Nc1cccc(F)c1)c1cccc(Br)c1 | inactive |
| O=C(Nc1cccc(F)c1)N1C[C@@H]2C[C@H](C1)c1c(-c3cc4ccccc4s3)ccc(=O)n1C2 | inconclusive: 16% |
| COc1ccc2nc3oc(C(=O)N4CCOCC4)cc3cc2c1 | inactive |
| CCN1CCN(C(=O)CCC(=O)Nc2ccc3nc(N4CCN(C)CC4)cc(C)c3c2)CC1 | inactive |
| O=C(Nc1cccc2cccnc12)c1cc2ccccc2oc1=O | inconclusive: 14% |
| CCOC(=O)c1nn(Cc2ccccc2)c2c1CN(C(=O)c1cc3ncccn3n1)CC2 | inconclusive: 15% |
